No constants are given. Whether binding was seen depends on the method and setting. For part of these data: In cells and extracts the contact can be indirect. Some results given as binding are weak or reduced against the parent protein; the word gives no strength.

Chains of the proteins cited; added tags and fusions are not shown.
UniProt P03372: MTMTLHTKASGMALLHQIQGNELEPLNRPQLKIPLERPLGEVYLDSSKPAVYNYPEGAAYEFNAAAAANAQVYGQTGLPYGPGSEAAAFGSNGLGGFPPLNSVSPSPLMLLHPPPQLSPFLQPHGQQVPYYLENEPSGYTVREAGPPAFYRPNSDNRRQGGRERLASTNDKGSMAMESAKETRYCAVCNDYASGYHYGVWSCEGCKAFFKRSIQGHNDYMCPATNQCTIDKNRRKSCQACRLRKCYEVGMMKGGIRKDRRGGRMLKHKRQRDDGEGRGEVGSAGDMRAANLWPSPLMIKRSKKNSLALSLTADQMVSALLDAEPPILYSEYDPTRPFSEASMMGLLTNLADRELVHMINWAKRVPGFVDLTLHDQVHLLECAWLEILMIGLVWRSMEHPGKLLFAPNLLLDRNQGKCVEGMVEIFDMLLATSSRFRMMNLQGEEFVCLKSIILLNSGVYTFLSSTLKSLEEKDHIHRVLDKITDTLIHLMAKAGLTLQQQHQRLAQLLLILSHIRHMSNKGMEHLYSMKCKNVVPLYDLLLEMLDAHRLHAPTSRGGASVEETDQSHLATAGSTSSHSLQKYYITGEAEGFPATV
UniProt Q13485: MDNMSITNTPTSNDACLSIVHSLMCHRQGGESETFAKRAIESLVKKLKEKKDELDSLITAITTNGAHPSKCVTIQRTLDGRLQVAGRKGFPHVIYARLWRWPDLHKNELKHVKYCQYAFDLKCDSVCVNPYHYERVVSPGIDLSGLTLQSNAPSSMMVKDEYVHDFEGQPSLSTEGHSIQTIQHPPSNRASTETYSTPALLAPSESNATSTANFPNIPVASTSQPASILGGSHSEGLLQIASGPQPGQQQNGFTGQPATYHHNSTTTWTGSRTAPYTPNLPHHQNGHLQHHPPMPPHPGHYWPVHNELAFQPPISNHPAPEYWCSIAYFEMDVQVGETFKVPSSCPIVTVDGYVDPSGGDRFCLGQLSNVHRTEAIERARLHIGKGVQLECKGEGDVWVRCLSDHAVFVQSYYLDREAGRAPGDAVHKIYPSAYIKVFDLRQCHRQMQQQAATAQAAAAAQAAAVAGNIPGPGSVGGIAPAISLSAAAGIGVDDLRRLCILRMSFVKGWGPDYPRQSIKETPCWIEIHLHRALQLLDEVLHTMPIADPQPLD
UniProt P84022: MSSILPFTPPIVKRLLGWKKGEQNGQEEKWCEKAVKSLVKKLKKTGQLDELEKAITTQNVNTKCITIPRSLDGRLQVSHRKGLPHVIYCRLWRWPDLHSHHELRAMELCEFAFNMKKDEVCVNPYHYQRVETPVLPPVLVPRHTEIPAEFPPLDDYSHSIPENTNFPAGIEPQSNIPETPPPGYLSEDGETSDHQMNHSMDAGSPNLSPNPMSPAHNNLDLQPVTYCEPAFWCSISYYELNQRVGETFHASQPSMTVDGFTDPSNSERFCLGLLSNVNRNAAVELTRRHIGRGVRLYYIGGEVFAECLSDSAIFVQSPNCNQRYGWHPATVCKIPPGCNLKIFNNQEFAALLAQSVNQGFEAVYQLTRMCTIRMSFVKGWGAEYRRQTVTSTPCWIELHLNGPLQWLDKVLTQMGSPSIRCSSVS

Results on 3 substances are retold here after publication PMC2787496.

Assay [1] addresses HA-tagged human ERα (human) (UniProt P03372). Nature of the assay: sequential immunoprecipitation and DNA precipitation (DNAP); COS-1 cells co-transfected with HA-ERα, FLAG-Smad3 and FLAG-Smad4, treated with or without E2 and TGF-β1; anti-HA immunoprecipitation, elution with HA peptide, precipitation with biotinylated wild-type or mutant ERE …; immunoblot with anti-FLAG and anti-HA. (In general: A western blot detects proteins with antibodies after separation by electrophoresis.)

Assay [2] deals with Smad4, endogenous in MCF-7 cells (human (endogenous in MCF-7)) (UniProt Q13485). Description: co-IP; endogenous proteins of MCF-7 cells treated with vehicle, E2 or E2 + TGF-β1 for 1 hr; lysis in radioimmune precipitation assay buffer; immunoprecipitation with anti-Smad4 or anti-Smad2/3 and protein A/G beads, 3 hr at 4°C; immunoblot for ERα.

On to “FLAG-tagged Smad3 (from UniProt P84022 1-425)”, for which the binding result in assay [1] is listed as “binds”.
In the case of “FLAG-tagged Smad4 (from UniProt Q13485 1-552)”, the binding result in assay [1] was “binds”.
As for “estrogen receptor alpha (ERα), endogenous in MCF-7 cells (from UniProt P03372 1-595)”, the binding entry in assay [2] is “binds”.
